The text below walks through data of publication PMC3429460.

Protein sequences, listed by entry. Tags and fused reporters are not part of them. Lines headed by an entry give the natural chain unless they say otherwise; changes in a name come on top.
UniProt P70605: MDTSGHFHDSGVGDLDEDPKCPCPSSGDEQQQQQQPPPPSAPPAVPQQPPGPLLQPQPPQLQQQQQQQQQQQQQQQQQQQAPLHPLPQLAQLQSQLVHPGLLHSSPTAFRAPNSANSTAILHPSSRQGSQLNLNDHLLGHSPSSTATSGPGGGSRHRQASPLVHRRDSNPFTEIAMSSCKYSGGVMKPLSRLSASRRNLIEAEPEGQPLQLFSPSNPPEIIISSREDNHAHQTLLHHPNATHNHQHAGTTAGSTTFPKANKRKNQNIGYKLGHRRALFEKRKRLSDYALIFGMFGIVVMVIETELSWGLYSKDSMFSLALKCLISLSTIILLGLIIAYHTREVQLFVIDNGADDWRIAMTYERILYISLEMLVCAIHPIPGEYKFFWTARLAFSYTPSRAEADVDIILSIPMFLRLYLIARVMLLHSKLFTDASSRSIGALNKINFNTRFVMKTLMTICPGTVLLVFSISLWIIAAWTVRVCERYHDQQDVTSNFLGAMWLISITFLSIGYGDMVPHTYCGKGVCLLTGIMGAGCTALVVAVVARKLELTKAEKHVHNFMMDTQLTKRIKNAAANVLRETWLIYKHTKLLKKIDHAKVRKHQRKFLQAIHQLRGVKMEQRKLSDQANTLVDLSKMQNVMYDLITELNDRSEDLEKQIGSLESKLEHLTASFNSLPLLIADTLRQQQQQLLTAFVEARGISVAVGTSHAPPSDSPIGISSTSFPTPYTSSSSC
UniProt Q03135: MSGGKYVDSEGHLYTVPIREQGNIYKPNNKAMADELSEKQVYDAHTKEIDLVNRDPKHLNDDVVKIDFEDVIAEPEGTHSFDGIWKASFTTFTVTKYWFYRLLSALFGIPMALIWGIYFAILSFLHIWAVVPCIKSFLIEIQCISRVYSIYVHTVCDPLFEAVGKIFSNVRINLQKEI
UniProt P20339: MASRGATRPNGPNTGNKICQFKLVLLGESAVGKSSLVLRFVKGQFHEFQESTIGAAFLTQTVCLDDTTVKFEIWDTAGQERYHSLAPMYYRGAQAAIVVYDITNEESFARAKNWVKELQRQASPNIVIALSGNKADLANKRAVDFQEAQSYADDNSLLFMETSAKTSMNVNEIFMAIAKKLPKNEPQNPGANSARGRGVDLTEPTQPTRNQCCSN

These are yes or no findings as the source states them, for the method shown. In cells and extracts the contact can be indirect. Some binding calls cover weakened binding; strength is not graded here.

One test concerns the target myc-tagged KCa2.3 (UniProt P70605). Kind of test: co-IP; HEK293 cells co-transfected; myc-KCa2.3 immunoprecipitated with anti-myc Ab (anti-V5 Ab as IgG control), protein G-agarose, immunoblot with anti-GFP Ab (dynamin II) or anti-Rab5 Ab. Background: Immunoblotting shows a protein as a band on a membrane.
In another test the target is GFP-tagged caveolin-1 (UniProt Q03135). The experiment in a line: co-IP; HEK293 cells co-transfected; caveolin-1 immunoprecipitated with anti-GFP Ab (anti-V5 Ab as IgG control), protein G-agarose, immunoblot with anti-KCa2.3 Ab.

“DsRed-tagged Q79L Rab5 (GTP-bound, dominant active) (from UniProt P20339 1-215)”: the binding entry with myc-tagged KCa2.3 is given as “binds”. Same read-out and setting: to “DsRed-tagged S34N Rab5 (GDP-bound, dominant negative) (from UniProt P20339 1-215)” belongs “no binding”.

For the substance “DsRed-tagged WT Rab5 (from UniProt P20339 1-215)”, in the test with myc-tagged KCa2.3, the binding result is “no binding”.

As for “KCa2.3 (small conductance, Ca2+-activated K+ channel), construct of the caveolin-1 co-IP (from UniProt P70605 1-732)”, in the test with GFP-tagged caveolin-1, the binding entry is “binds”.
